## Percent effect of library compounds

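Whole-cell growth test on Mycobacterium tuberculosis, read after 3 days in glucose-containing 7H9 medium; the read-out is not stated. Concentration: 50 µM. The record gives no direction; compounds that gave an IC50 in retests scored well above the rest, so higher reads as more growth inhibition. Size under these conditions: about 69,000 compounds, about 760 of them at 50% or above in at least one test.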

Results are given as percent effect.
The controls that fix the scale are not given in the record; negative values are as filed.
The compounds are a random part of those screened.
Two or more numbers in one place are separate tests of the same structure; such repeats can differ widely.

{"structure": "O=C(c1cccnc1N1CCCCC1)N1CCCC(n2ccnc2)C1", "stereo": "stereo unspecified", "effect": 17.67}
{"structure": "COc1ccc2c(c1)C1(CCNCC1)CC2NC1CC1.Cl.Cl", "stereo": "stereo unspecified", "effect": -27.63}
{"structure": "Cn1cc(CN2CCc3c(nc(-c4ccccn4)[nH]c3=O)C2)cn1", "effect": 9.321}
{"structure": "CC(Cn1cccn1)NCC(=O)NC1CCOCC1", "stereo": "stereo unspecified", "effect": -16.72}
{"structure": "COc1ccc([C@@H]2CN(C(=O)CS(C)(=O)=O)C[C@H]2NC(C)=O)cc1", "effect": "-1.085 & 35.85"}
{"structure": "O=C(NCCOc1ccc(Cl)cc1)N1CCS(=O)(=O)CC1", "effect": -8.091}
{"structure": "O=C(c1csc(-c2cccs2)n1)N1CCN2CCCCC2C1", "stereo": "stereo unspecified", "effect": "-20.27 & -0.05255"}
{"structure": "COc1cccc(OCC2CCCN(C(=O)c3ncoc3C3CC3)C2)c1", "stereo": "stereo unspecified", "effect": 1.666}
{"structure": "CCN1CCCC(c2c(-c3ccccc3)ncn2CCCO)C1", "stereo": "stereo unspecified", "effect": 5.293}
{"structure": "O=C(O)C(F)(F)F.O=C(O)C(F)(F)F.c1csc(CN2CCC3(CC2)CCN(CC2CCOCC2)C3)n1", "effect": "-3.425 & -5.246"}
{"structure": "O=c1[nH]c(N2CCCCC2)nc2c1CCN(Cc1cccnc1)C2", "effect": -5.817}
{"structure": "CC(C)(C)OC(=O)CNC(=O)CCc1nnc(-c2ccsc2)o1", "effect": 3.341}
{"structure": "CN(C)Cc1csc(-c2nccn2CCc2cccnc2)c1", "effect": -3.359}
{"structure": "CN(C)C(C)(C)CNCc1cn(C)nc1-c1cccnc1.Cl", "effect": 8.979}
{"structure": "O=C(O)c1ccn(-c2ccccc2NS(=O)(=O)c2cccc(F)c2)n1", "effect": -35.68}
{"structure": "CC(C(=O)NC1(C#N)CCCCC1)N1CCc2c(ncn2C)C1", "stereo": "stereo unspecified", "effect": "-3.052 & 10.13"}
{"structure": "CN(CCc1ccccc1)C(=O)CN1C(=O)OC[C@@H]1c1ccccc1", "effect": "-4.305 & -6.458"}
{"structure": "CCNC(=O)Cc1ccc(NC(=O)NC(CC)c2ccncc2)cc1", "stereo": "stereo unspecified", "effect": "-8.139 & -1.635"}
{"structure": "COCC(=O)N1CCN(C(=O)C2CCCCC2)[C@@H](C(=O)OC)C1", "effect": "-3.152 & 5.713"}
{"structure": "O=C(O)C(F)(F)F.O=C(O)C(F)(F)F.[H][C@@]12CN(CCOC)CC[C@]1([H])CN(Cc1cccnc1OC)C2", "effect": -22.86}
{"structure": "CC(NCc1cc2cc(F)ccc2o1)c1nnc2n1CCCC2", "stereo": "stereo unspecified", "effect": -5.588}
{"structure": "CCc1cn[nH]c1C1CCN(c2cc(C)c3cc(OC)ccc3n2)CC1", "effect": 26.72}
{"structure": "[H][C@]12CCN(C(=O)c3cc(C)oc3C)C[C@@]1([H])OCCN(C(C)=O)C2", "effect": -41.09}
{"structure": "Fc1ccc(C2CCCN2Cc2nc(Cc3ccccc3F)no2)cc1", "stereo": "stereo unspecified", "effect": 14.62}
{"structure": "Cc1ccc(N(CCC#N)C(=O)CN2CCCC2c2cccs2)cc1", "stereo": "stereo unspecified", "effect": 40.33}
{"structure": "CC(=O)Nc1nc(CN2CCCC2Cn2cncn2)cs1", "stereo": "stereo unspecified", "effect": 9.723}
{"structure": "Cn1cnc(S(=O)(=O)N2CCN(Cc3ccco3)CC2)c1Cl", "effect": "25.45 & -4.189"}
{"structure": "O=C1NCCN2CCN(C(=O)NCCc3ccccc3)CC12", "stereo": "stereo unspecified", "effect": 0.1959}
{"structure": "O=C(O)C(F)(F)F.[H][C@@]12CCN(C3CCOCC3)C[C@@]1([H])O[C@@H](C(=O)N1CCCC1)C2", "effect": 31.2}
{"structure": "Cn1nc(C(=O)N2CCCC2)c2c1CN(CC1CCOCC1)C2", "effect": "-41.51 & -8.593"}
{"structure": "[H][C@@]12CCN(C(=O)COC)CC[C@]1(C(=O)Nc1ccccc1)CCN2C", "effect": 11.13}
{"structure": "Cc1ccc(C)c(C(O)CN(C)Cc2nnc3ccccn23)c1", "stereo": "stereo unspecified", "effect": 4.591}
{"structure": "CCc1cnc(CN(C)C2CCN(CCCNS(C)(=O)=O)C2)o1", "stereo": "stereo unspecified", "effect": 25.96}
{"structure": "CNc1nc(N2CCN(C)C(CCO)C2)nc2c1CCC2", "stereo": "stereo unspecified", "effect": "-6.472 & -11.15"}
{"structure": "CCOc1cc(CNCc2ncc[nH]2)c(Cl)cc1OC(C)C", "effect": 45.68}
{"structure": "Cc1nc(N)ncc1C(=O)N1CCCC1(C)C(=O)N(C)C", "stereo": "stereo unspecified", "effect": 18.33}
{"structure": "CCNC(=O)C1CCCN(Cn2nc(C(C)(C)C)ccc2=O)C1", "stereo": "stereo unspecified", "effect": 3.007}
{"structure": "O=C(O)C(F)(F)F.O=C(O)C(F)(F)F.c1ccc(N2CCC3(COCCN(Cc4cccs4)C3)C2)nc1", "stereo": "stereo unspecified", "effect": 20.17}
{"structure": "[H][C@@]12CCCO[C@]1([H])[C@H](N(C)C(C)C)CN(C(=O)c1cc(C)[nH]c1C)C2", "effect": "-14.87 & -8.872"}
{"structure": "COCCC1(CNC(=O)Nc2ccc(-n3nccn3)cc2)CCC1", "effect": 23.16}

Once more, the final 3:

structure	effect
O=C(O)C(F)(F)F.O=C(O)C(F)(F)F.c1ccc(N2CCC3(COCCN(Cc4cccs4)C3)C2)nc1 (stereo unspecified)	20.17
[H][C@@]12CCCO[C@]1([H])[C@H](N(C)C(C)C)CN(C(=O)c1cc(C)[nH]c1C)C2	-14.87 & -8.872
COCCC1(CNC(=O)Nc2ccc(-n3nccn3)cc2)CCC1	23.16

Source: ChEMBL document CHEMBL3988442, “University of Dundee, Small-Polar-MMV Screening Library” (2021).